Results reported in patent publication US20050002904A1, “Uses of vascular endothelial growth factor and type I collagen inducible protein (VCIP)” (priority 2003, published 2005).
Results are given in words; binding and its absence hold for the method and conditions named. Some entries that bind do so weakly or less than the wild type. Sequences can lack the tags named with a protein.

The chains behind the UniProt entries cited, without tags or fusion partners. Where a name states a change or a piece, a line headed by the entry shows the natural chain unless it says otherwise.
UniProt P06756: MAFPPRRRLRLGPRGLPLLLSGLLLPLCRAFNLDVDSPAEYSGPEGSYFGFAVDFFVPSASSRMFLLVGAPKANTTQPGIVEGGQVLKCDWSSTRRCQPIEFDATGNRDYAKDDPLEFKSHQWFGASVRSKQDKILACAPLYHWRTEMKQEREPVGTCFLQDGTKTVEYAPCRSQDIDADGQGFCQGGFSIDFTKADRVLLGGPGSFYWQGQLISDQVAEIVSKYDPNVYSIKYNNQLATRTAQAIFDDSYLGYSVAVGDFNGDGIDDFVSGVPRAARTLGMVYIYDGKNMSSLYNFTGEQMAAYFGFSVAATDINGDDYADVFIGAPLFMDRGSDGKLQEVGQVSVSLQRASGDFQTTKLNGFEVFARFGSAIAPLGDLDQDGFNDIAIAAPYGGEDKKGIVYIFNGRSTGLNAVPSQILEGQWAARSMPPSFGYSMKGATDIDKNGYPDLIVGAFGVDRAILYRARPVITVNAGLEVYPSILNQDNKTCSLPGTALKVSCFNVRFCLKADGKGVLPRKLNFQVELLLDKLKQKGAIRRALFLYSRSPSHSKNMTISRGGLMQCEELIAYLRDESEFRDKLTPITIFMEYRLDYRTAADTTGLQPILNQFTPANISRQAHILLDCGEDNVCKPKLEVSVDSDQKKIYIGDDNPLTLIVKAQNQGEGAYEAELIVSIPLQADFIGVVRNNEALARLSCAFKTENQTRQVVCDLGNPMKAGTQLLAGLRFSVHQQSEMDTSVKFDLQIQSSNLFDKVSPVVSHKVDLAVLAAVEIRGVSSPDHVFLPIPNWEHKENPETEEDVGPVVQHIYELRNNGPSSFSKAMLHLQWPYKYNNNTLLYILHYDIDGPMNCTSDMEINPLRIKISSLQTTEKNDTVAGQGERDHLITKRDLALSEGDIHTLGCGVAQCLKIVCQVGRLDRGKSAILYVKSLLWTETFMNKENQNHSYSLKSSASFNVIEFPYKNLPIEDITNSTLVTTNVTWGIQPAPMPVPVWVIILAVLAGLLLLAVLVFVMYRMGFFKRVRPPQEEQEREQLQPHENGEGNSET
UniProt P08648: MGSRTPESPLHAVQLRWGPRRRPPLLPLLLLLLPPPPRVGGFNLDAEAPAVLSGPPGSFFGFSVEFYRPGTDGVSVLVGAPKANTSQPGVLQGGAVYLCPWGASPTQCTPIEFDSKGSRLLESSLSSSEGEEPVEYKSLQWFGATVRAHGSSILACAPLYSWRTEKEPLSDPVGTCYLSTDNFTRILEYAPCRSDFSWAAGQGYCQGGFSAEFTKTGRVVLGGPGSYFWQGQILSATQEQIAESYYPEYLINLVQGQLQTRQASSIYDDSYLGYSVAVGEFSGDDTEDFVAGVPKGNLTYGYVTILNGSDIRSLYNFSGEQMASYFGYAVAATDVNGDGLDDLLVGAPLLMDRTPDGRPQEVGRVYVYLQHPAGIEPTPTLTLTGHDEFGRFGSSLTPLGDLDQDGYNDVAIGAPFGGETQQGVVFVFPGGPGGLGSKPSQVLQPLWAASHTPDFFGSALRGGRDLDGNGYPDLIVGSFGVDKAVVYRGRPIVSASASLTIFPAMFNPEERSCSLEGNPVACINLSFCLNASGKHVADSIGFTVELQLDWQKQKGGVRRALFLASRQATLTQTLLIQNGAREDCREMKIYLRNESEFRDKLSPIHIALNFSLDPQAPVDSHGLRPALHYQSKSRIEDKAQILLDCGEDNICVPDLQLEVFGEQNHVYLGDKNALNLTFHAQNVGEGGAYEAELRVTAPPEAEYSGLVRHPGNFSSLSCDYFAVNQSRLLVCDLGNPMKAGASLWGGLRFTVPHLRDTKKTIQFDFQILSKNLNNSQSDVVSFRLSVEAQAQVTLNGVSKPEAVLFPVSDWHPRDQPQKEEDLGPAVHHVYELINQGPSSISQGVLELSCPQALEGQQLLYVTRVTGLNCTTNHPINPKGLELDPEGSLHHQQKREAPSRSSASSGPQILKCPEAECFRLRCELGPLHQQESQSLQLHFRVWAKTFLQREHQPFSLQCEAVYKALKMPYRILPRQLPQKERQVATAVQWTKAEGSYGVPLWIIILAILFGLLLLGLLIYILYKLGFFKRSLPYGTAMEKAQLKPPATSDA

Legend:
[1] = target: soluble αvβ3 integrin (UniProt P06756); experiment: solid-phase ligand binding ELISA, dose series (FIG. 10C)
[2] = target: soluble α5β1 integrin (UniProt P08648); experiment: solid-phase ligand binding ELISA, integrin immobilized, anti-GST detection
[3] = target: soluble αvβ3 integrin (UniProt P06756); experiment: as above

- binding [1]: binds
- binding [2]: binds
- binding [3]: binds
B1: GST-VCIP-RGD fusion protein (wild-type glutathione S-transferase-VCIP-RGD) (peptide, not shown: a dimerising Fc or GST)
chain: DIAKVSIGRLRPHFLSVCNPDFSQINCSEGYIQNYRCRGDDSKVQEARKS
